Measurements from “University of Dundee, Small-Polar-MMV Screening Library” (2021), ChEMBL document CHEMBL3988442.

Mtb heat-shock: 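Assay on Mycobacterium tuberculosis, filed only as a heat shock assay from Cornell; the read-out is not stated. The concentration is filed as 10 mM, unlikely as a test dose, so the dose is not known. Higher reads as stronger inhibition (inferred: compounds with an IC50 in retests scored well above the rest). About 69,000 compounds were tested under these conditions; 1.4% (about 930) showed 50% or more at least once.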
Mtb growth Cornell: 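Whole-cell assay for inhibitors of Mycobacterium tuberculosis growth, labelled Cornell in the record; the read-out is not stated. The concentration is filed as 10 mM, unlikely as a test dose, so the dose is not known. The record gives no direction; compounds strong in two other growth screens of this library score well above the rest, so higher reads as stronger inhibition. Size under these conditions: about 53,000 compounds, about 900 of them at 50% or above in at least one test.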

Results are given as percent effect.
The record does not define 0% and 100%; most values in the screen are far below 50% and negative numbers occur (in some assays of this library far below -100).
Compounds were drawn at random from those tested, without regard to their results.

CN1CCN(CCn2cnc3c(F)cccc3c2=O)CC1 read Mtb heat-shock: -9.9%; Mtb growth Cornell: 13.95%. Result for CC(=O)N1N=C(c2ccccc2)OC1C(=O)NCCc1cccc(Cl)c1 (centres unmarked) was Mtb heat-shock: -5.794%. With CN(Cc1ccsc1)C(=O)Nc1ccc(=O)n(C)c1 the screen gave Mtb heat-shock: 26.77%; Mtb growth Cornell: -22.35%. Cc1nc(-c2nnc[nH]2)sc1C(=O)N1CCCC1CC(C)(C)C (centres unmarked) gave Mtb heat-shock: 0.6778%; Mtb growth Cornell: -52.36%. For CN(Cc1ccccc1)C1(C(=O)O)Cc2ccccc2C1 the result was Mtb heat-shock: -3.536%; Mtb growth Cornell: 6.172%.

Result for CC(C)Oc1cccc(-c2nc3c([nH]2)CCCNC3=O)c1 was Mtb heat-shock: -2.593%; Mtb growth Cornell: -4.933%. With CCc1ncncc1C(=O)NC1CCc2nc(C)cn2C1 (centres unmarked) the screen gave Mtb heat-shock: 6.179%. For CS(=O)(=O)N1CC[C@H](c2nc3ccc(C(F)(F)F)cc3[nH]2)C1 the result was Mtb heat-shock: 15.67%. With [H][C@@]12CCN(S(=O)(=O)C3CC3)[C@@]1([H])CCN2C(=O)c1ccnnc1 the screen gave Mtb heat-shock: 17.87%; Mtb growth Cornell: 6.484%. With c1csc(-c2noc(CCCN3CCCC3Cn3cccn3)n2)c1 (centres unmarked) the screen gave Mtb heat-shock: 16.25%; Mtb growth Cornell: 24.65%.

For O=C(CN1CCCC1Cn1cncn1)NCCOc1ccc(F)cc1 (centres unmarked) the result was Mtb heat-shock: -13.81%; Mtb growth Cornell: -13%. Result for CNS(=O)(=O)CCn1cc(-c2ccc(NC(C)=O)cc2)nn1 was Mtb heat-shock: -17.58%; Mtb growth Cornell: -37.64%. For CCn1nc(C)c2ncnc(NCCCN3CCOCC3)c21 the result was Mtb heat-shock: 2.081%. For COc1cccc(N2CCN(C(=O)C(O)c3ccccc3Cl)CC2=O)c1 (centres unmarked) the result was Mtb heat-shock: 7.285%; Mtb growth Cornell: -23.02%. Result for Cc1nc(CNC(=O)N2CCCC(c3ncc[nH]3)C2)sc1C (centres unmarked) was Mtb heat-shock: 3.386%; Mtb growth Cornell: 23.8%.

With CC(=O)N[C@@H](C)C(=O)NCc1cccnc1Oc1ccccc1F the screen gave Mtb heat-shock: -0.1447%; Mtb growth Cornell: 7.958%. Cc1nnc(CN(C)CC(=O)NCCc2ccc(F)cc2)n1C read Mtb heat-shock: 8.112%; Mtb growth Cornell: 9.785%. With Cc1ccc(CCNC(=O)CC2COCCN2S(=O)(=O)N(C)C)o1 (centres unmarked) the screen gave Mtb heat-shock: 5.817%; Mtb growth Cornell: -22.79%. Cc1nn(C)cc1S(=O)(=O)N[C@@H]1CC[C@@H](n2ccnc2C)[C@@H]1O read Mtb heat-shock: -29.78%; Mtb growth Cornell: -21.64%. With c1ccc(Cn2ccnc2CN2CCCC2c2noc(C3CC3)n2)cc1 (centres unmarked) the screen gave Mtb heat-shock: 104.2%.

CN(Cc1ccco1)c1ccc(-c2nccn2C)nn1 read Mtb heat-shock: 14.86%; Mtb growth Cornell: 3.669%. Cc1ccccc1N(CC(=O)NCCc1nnc2n1CCC2)S(C)(=O)=O gave Mtb heat-shock: -5.551%; Mtb growth Cornell: -1.432%. COCC(=O)NS(=O)(=O)c1ccc(F)c(F)c1 read Mtb heat-shock: -0.5062%; Mtb growth Cornell: 42.18%. CCCc1cncnc1N1CCC2(CCC(=O)N(CCCO)C2)CC1 read Mtb heat-shock: -11.29%; Mtb growth Cornell: 0.5337%. Cc1csc(CCNC(=O)N2CCC(C(N)=O)CC2)n1 gave Mtb heat-shock: -2.052%; Mtb growth Cornell: -11.34%.

For C[C@@H]1CN(C(=O)C2(N3CCCCC3)Cc3ccccc3C2)C[C@H](C)O1 the result was Mtb heat-shock: -11.11%; Mtb growth Cornell: 35.33%. For Cc1nccn1-c1ccc(NC(=O)C2CCCN2Cc2c[nH]cn2)cc1 (centres unmarked) the result was Mtb heat-shock: -25.84%; Mtb growth Cornell: 2.631%. Result for COCCn1cnnc1CN(C)c1nc(N)nc2c1CCCC2 was Mtb heat-shock: 3.467%; Mtb growth Cornell: -49.23%. O=C1C(NCc2nnc3n2CCCC3)CCCN1c1cccc(F)c1 (centres unmarked) gave Mtb heat-shock: 21.77%; Mtb growth Cornell: 10.87%. Result for Cc1cccc(C(=O)N2CCCCC2c2ccc(CN(C)C)cc2)n1 (centres unmarked) was Mtb heat-shock: -10.19%; Mtb growth Cornell: -2.492%.

CC(C)NC(=O)N1CCCC2(CCN(c3ccsc3)C2=O)C1 (centres unmarked) gave Mtb heat-shock: -6.569%; Mtb growth Cornell: 4.291%. COc1ccnc(N2C[C@@H](NS(=O)(=O)N(C)C)[C@H](C(C)C)C2)n1 gave Mtb heat-shock: -14.35%; Mtb growth Cornell: 16.42%. For O=C(O)C(F)(F)F.[H][C@]12CCC[C@@]1(COCc1csc(C)n1)CN(CC1CCOCC1)C2 the result was Mtb heat-shock: -19.12%; Mtb growth Cornell: -12.11%.

Once more, the final 4:

{"smiles": "Cc1cccc(C(=O)N2CCCCC2c2ccc(CN(C)C)cc2)n1", "stereo": "centres unmarked", "Mtb heat-shock": -10.19, "Mtb growth Cornell": -2.492}
{"smiles": "CC(C)NC(=O)N1CCCC2(CCN(c3ccsc3)C2=O)C1", "stereo": "centres unmarked", "Mtb heat-shock": -6.569, "Mtb growth Cornell": 4.291}
{"smiles": "COc1ccnc(N2C[C@@H](NS(=O)(=O)N(C)C)[C@H](C(C)C)C2)n1", "Mtb heat-shock": -14.35, "Mtb growth Cornell": 16.42}
{"smiles": "O=C(O)C(F)(F)F.[H][C@]12CCC[C@@]1(COCc1csc(C)n1)CN(CC1CCOCC1)C2", "Mtb heat-shock": -19.12, "Mtb growth Cornell": -12.11}